Data reported in patent US20180085356A1, “METHOD OF TREATING DISEASE CHARACTERISED BY PROTEIN AGGREGATE DEPOSITION IN NEURONAL CELLS” (CHRONOS THERAPEUTICS LIMITED, priority 2013, published 2018).

Tests used:
[1] = system: TDP-43; assay: Motor neuron culture with Aβ1-42 insult: extranuclear TDP-43 accumulation; assay type: cell-based, rat; details: 5 μM riluzole, 24 hours; control cells increased by 191%
Method: (§1) Primary motor neuron (MN) cultures generated from rat spinal cord were treated with 20 μM amyloid beta 1-42 peptide (Aβ1-42). […] This model was used to determine the effect of tacrolimus on TDP-43 toxicity in motor neurons. […] After permeabilisation with 0.1% saponin, one group of cells was incubated for 2 hours with a) mouse monoclonal anti-microtubule-associated-protein 2 (MAP-2) antibody, and b) rabbit polyclonal anti-TDP-43 antibody. The anti-MAP-2 antibody was used to determine MN survival (number of stained MN) and MN neurite length. The anti-TDP-43 antibody was used to examine extranuclear TDP-43: the area of extranuclear TDP-43 staining per MN was calculated by normalising to the number of MAP-2 positive cells.

[2] = system: primary motor neuron (MN) cultures generated from rat spinal cord; assay: Motor neuron culture with Aβ1-42 insult: neurite network and survival (MAP-2 staining); assay type: cell-based; details: 10 μM riluzole
Method: as §1

Nc1nc2ccc(OC(F)(F)F)cc2s1 [riluzole, Riluzole]
increase of TDP-43:MN ratio in response to Aβ1-42 insult relative to unchallenged cells [1]: 51% | toxicity to motor neuron culture [2]: toxic to the cells
